The results in this text go back to the supplement of paper PMC11348887.

What all share (conditions): 5 µM; treatment: days 7-14 after plating, readout day 21
Assay [1] concerns hPSC-derived cortical neurons (WA09). Nature of the assay: nucleus area z-score vs screen plate; higher = larger nuclei (more mature).
The test system is the same in assay [2]. The assay is described as follows: total neurite length per nucleus (MAP2) z-score; higher = more neurite growth.
The test system is the same in assay [3]. The assay is described as follows: nucleus roundness z-score vs screen plate; higher = rounder nuclei (more mature).
For assay [4] the test system is unchanged. The assay is described as follows: KCl-induced FOS+/EGR-1+ double-positive nuclei fraction z-score (KCl minus unstimulated); higher = stronger activity-induced IEG response.

Counter-ions that a name gives are not always drawn. The list shows a part of the results. Most values lie at the level of the controls, where differences are scatter.

In turn, `Cc1ccccc1N=Nc1ccc(NC(=O)c2ccnn2C)c(C)c1` showed a nucleus area z-score in assay [1] of -0.164. The “total neurite length per nucleus (z-score)” value in assay [2] was determined as 0.251. The same compound gave a nucleus roundness z-score in assay [3] of -0.403. Further, the “KCl-induced FOS+/EGR-1+ double-positive nuclei fraction z-score” value in assay [4] came to 0.299.
In turn, `COc1ccccc1OCC(O)CO` (stereo not given) [Guaifenesin] had a nucleus area z-score in assay [1] of -0.136. For the same compound, the “total neurite length per nucleus (z-score)” value in assay [2] stood at 0.468. In assay [3], this compound came in with a nucleus roundness z-score of 0.485. In assay [4], the “KCl-induced FOS+/EGR-1+ double-positive nuclei fraction z-score” value amounted to 0.285.
On to `OC(c1cc(-c2ccc(Cl)cc2)nc2ccccc12)C1CCCCN1` (stereo not given) [Vacquinol-1], for which the nucleus area z-score in assay [1] is -15.1. The “total neurite length per nucleus (z-score)” value in assay [2] is -5.95. For the same compound, the nucleus roundness z-score in assay [3] is -10.6. In addition, the “KCl-induced FOS+/EGR-1+ double-positive nuclei fraction z-score” value in assay [4] is -0.627.
The compound `Nc1ccc(S(=O)(=O)Nc2ncccn2)cc1` [Sulfadiazine] had a nucleus area z-score in assay [1] of 0.184. Moreover, the “total neurite length per nucleus (z-score)” value in assay [2] is -0.07. This compound also showed a nucleus roundness z-score in assay [3] of -0.855. For the same compound, the “KCl-induced FOS+/EGR-1+ double-positive nuclei fraction z-score” value in assay [4] was 0.693.
The compound `CC(C)C[C@H](NC(=O)[C@H](CCc1ccccc1)NC(=O)CN1CCOCC1)C(=O)N[C@@H](Cc1ccccc1)C(=O)N[C@@H](CC(C)C)C(=O)[C@@]1(C)CO1` [Carfilzomib (PR-171)] had a nucleus area z-score in assay [1] of -18.9. For the same compound, the “total neurite length per nucleus (z-score)” value in assay [2] was -5.76. The compound also returned a nucleus roundness z-score in assay [3] of -6.83. Also, the “KCl-induced FOS+/EGR-1+ double-positive nuclei fraction z-score” value in assay [4] is -1.06.
Turning to `CC[N+](CC)(CC)CCOc1cccc(OCC[N+](CC)(CC)CC)c1OCC[N+](CC)(CC)CC` [Gallamine Triethiodide], the nucleus area z-score in assay [1] was -0.713. Also, in assay [2], the “total neurite length per nucleus (z-score)” value came out at 0.491. Further, in assay [3], the nucleus roundness z-score was found to be 0.786. Besides, the “KCl-induced FOS+/EGR-1+ double-positive nuclei fraction z-score” value in assay [4] stood at 2.68.
For `CNc1ncnc2c1ncn2[C@@H]1O[C@H](CO)[C@@H](O)[C@H]1O` [N6-methyladenosine (m6A)] the same measures were 0.231, 1.44, 1.3 and 0.439.
The corresponding values for `CNC(=C[N+](=O)[O-])NCCSCc1ccc(CN(C)C)o1` [Ranitidine] are 0.339, 1.09, 0.0866 and 0.694.
In the case of `CCCCCCNC(=O)n1cc(F)c(=O)[nH]c1=O` [Carmofur], the nucleus area z-score in assay [1] was -0.738. In addition, the “total neurite length per nucleus (z-score)” value in assay [2] was -0.569. The nucleus roundness z-score in assay [3] stood at 0.618. Also, the “KCl-induced FOS+/EGR-1+ double-positive nuclei fraction z-score” value in assay [4] is -0.146.
`OC(CNCC(O)C1CCc2cc(F)ccc2O1)C1CCc2cc(F)ccc2O1` (stereo not given) [Nebivolol] had a nucleus area z-score in assay [1] of -1.26. Further, the “total neurite length per nucleus (z-score)” value in assay [2] was -0.903. Also, in assay [3], the nucleus roundness z-score was -0.627. Further, in assay [4], the “KCl-induced FOS+/EGR-1+ double-positive nuclei fraction z-score” value is -1.4.
`COc1ccc(F)c(F)c1C(=O)c1cnc(NC2CCN(S(C)(=O)=O)CC2)nc1N` registered a nucleus area z-score in assay [1] of -4.99. Moreover, in assay [2], the “total neurite length per nucleus (z-score)” value is -2.51. The same compound returned a nucleus roundness z-score in assay [3] of -0.948. Moreover, in assay [4], the “KCl-induced FOS+/EGR-1+ double-positive nuclei fraction z-score” value was -2.
`Nc1nc(N)c2nc(-c3cccc(O)c3)c(-c3cccc(O)c3)nc2n1` displayed a nucleus area z-score in assay [1] of -0.575. The “total neurite length per nucleus (z-score)” value in assay [2] came to 0.692. In assay [3], this compound showed a nucleus roundness z-score of 1.42. Moreover, in assay [4], the “KCl-induced FOS+/EGR-1+ double-positive nuclei fraction z-score” value was determined as 0.0942.
For `C[C@@H]1O[C@@H](O[C@H]2[C@H](Oc3cc(O)c4c(c3)O[C@H](c3ccc(O)cc3)CC4=O)O[C@H](CO)[C@@H](O)[C@@H]2O)[C@H](O)[C@H](O)[C@H]1O` [Naringin] the same measures were 2.81, -1.82, -1.76 and -0.506.
For `Nc1nccs1` [Aminothiazole], in assay [1], the nucleus area z-score was -0.629. For the same compound, the “total neurite length per nucleus (z-score)” value in assay [2] stood at 0.186. The same compound showed a nucleus roundness z-score in assay [3] of 0.291. For the same compound, the “KCl-induced FOS+/EGR-1+ double-positive nuclei fraction z-score” value in assay [4] was -0.509.
Regarding `COc1cc2c(NC3CCN(CC4CCCCC4)CC3)nc(N3CCCN(C(C)C)CC3)nc2cc1OCCCN1CCCCC1`, the nucleus area z-score in assay [1] was -12.6. The “total neurite length per nucleus (z-score)” value in assay [2] was -5.02. Also, the nucleus roundness z-score in assay [3] was -2.13. Moreover, the “KCl-induced FOS+/EGR-1+ double-positive nuclei fraction z-score” value in assay [4] is -2.79.
In assay [1], `CCC(=O)O[C@]1(C(=O)CCl)[C@@H](C)C[C@H]2[C@@H]3C[C@H](F)C4=CC(=O)C=C[C@]4(C)[C@@]3(F)[C@@H](O)C[C@@]21C` [Halobetasol Propionate] yielded a nucleus area z-score of 0.798. Besides, the “total neurite length per nucleus (z-score)” value in assay [2] is -0.564. In assay [3], the nucleus roundness z-score was -1.12. In addition, the “KCl-induced FOS+/EGR-1+ double-positive nuclei fraction z-score” value in assay [4] was -1.62.
Compound `Cc1cc(-c2ccc(CC(=O)Nc3ccc(-c4cccnc4)cc3)cc2)ccn1` gave a nucleus area z-score in assay [1] of -0.518. Moreover, the “total neurite length per nucleus (z-score)” value in assay [2] stood at 0.00131. The nucleus roundness z-score in assay [3] was -0.945. Further, in assay [4], the “KCl-induced FOS+/EGR-1+ double-positive nuclei fraction z-score” value came to 0.569.
In assay [1], `O=c1ccc2ccc(O)c(O)c2o1` [Daphnetin] registered a nucleus area z-score of -3.77. In addition, in assay [2], the “total neurite length per nucleus (z-score)” value is -0.673. The compound further gave a nucleus roundness z-score in assay [3] of 1.38. Further, in assay [4], the “KCl-induced FOS+/EGR-1+ double-positive nuclei fraction z-score” value was -0.128.
For `O=C(O[C@H]1CN2CCC1CC2)N1CCc2ccccc2[C@@H]1c1ccccc1` [Solifenacin succinate] the same measures were 0.169, 1.07, -1.62 and -0.0235.
The corresponding values for `COc1cc(NC(=O)c2ccccn2)ccc1Cl` are 1.06, -0.125, 0.231 and 1.63.
In turn, `C#CCC(Cc1cnc2nc(N)nc(N)c2n1)c1ccc(C(=O)N[C@@H](CCC(=O)O)C(=O)O)cc1` (stereo not given in full) [Pralatrexate] came in with a nucleus area z-score in assay [1] of 0.702. Moreover, the “total neurite length per nucleus (z-score)” value in assay [2] was -0.0274. Also, the nucleus roundness z-score in assay [3] was -1.13. Besides, the “KCl-induced FOS+/EGR-1+ double-positive nuclei fraction z-score” value in assay [4] is -1.09.
In turn, `COC(=O)N(C)c1c(N)nc(-c2nn(Cc3ccccc3F)c3ncccc23)nc1N` [Riociguat (BAY 63-2521)] displayed a nucleus area z-score in assay [1] of 0.367. Also, the “total neurite length per nucleus (z-score)” value in assay [2] came out at 0.68. In assay [3], the nucleus roundness z-score was 0.613. Further, the “KCl-induced FOS+/EGR-1+ double-positive nuclei fraction z-score” value in assay [4] amounted to 1.17.
As for `COCCCOc1ccnc(C[S+]([O-])c2nc3ccccc3[nH]2)c1C` (stereo not given) [Rebeprazole sodium], the nucleus area z-score in assay [1] stood at 2.4. Also, the “total neurite length per nucleus (z-score)” value in assay [2] is -0.484. This compound yielded a nucleus roundness z-score in assay [3] of -0.26. Moreover, the “KCl-induced FOS+/EGR-1+ double-positive nuclei fraction z-score” value in assay [4] came out at 0.00802.
In the case of `Cn1cnc([N+](=O)[O-])c1Sc1ncnc2[nH]cnc12` [Azathioprine], the nucleus area z-score in assay [1] is -0.107. In addition, the “total neurite length per nucleus (z-score)” value in assay [2] stood at 1.01. Besides, in assay [3], the nucleus roundness z-score amounted to 0.967. The “KCl-induced FOS+/EGR-1+ double-positive nuclei fraction z-score” value in assay [4] was determined as 0.958.
As for `Clc1ccc2c(c1)C(N1CCNCC1)=Nc1ccccc1O2` [Amoxapine], the nucleus area z-score in assay [1] was 2.24. The “total neurite length per nucleus (z-score)” value in assay [2] came out at 0.124. In addition, in assay [3], the nucleus roundness z-score was -0.994. Besides, the “KCl-induced FOS+/EGR-1+ double-positive nuclei fraction z-score” value in assay [4] amounted to 0.353.
In assay [1], `CCC(=O)O[C@]1(C(=O)CCl)[C@@H](C)C[C@H]2[C@@H]3CCC4=CC(=O)C=C[C@]4(C)[C@@]3(F)[C@@H](O)C[C@@]21C` [Clobetasol propionate] registered a nucleus area z-score of 1.17. Also, in assay [2], the “total neurite length per nucleus (z-score)” value is -1.37. In assay [3], this compound registered a nucleus roundness z-score of -1.42. Besides, in assay [4], the “KCl-induced FOS+/EGR-1+ double-positive nuclei fraction z-score” value is -1.29.
`O=C(NO)c1cccc(C(=O)NCCc2ccccc2)c1` registered a nucleus area z-score in assay [1] of 0.045. Also, in assay [2], the “total neurite length per nucleus (z-score)” value was determined as 0.355. Further, in assay [3], the nucleus roundness z-score was determined as 0.126. Further, the “KCl-induced FOS+/EGR-1+ double-positive nuclei fraction z-score” value in assay [4] came to 0.631.
Compound `Cc1ccc(-c2c(-c3nn(C)c4ncnc(N5CC[C@H](N6CCCCC6)C5)c34)cnn2C)cc1` had a nucleus area z-score in assay [1] of -0.195. The “total neurite length per nucleus (z-score)” value in assay [2] is -0.416. This compound returned a nucleus roundness z-score in assay [3] of 0.00281. For the same compound, in assay [4], the “KCl-induced FOS+/EGR-1+ double-positive nuclei fraction z-score” value is -0.35.
`Nc1ccn([C@@H]2O[C@H](CO)[C@@H](O)C2(F)F)c(=O)n1` [Gemcitabine]: the nucleus area z-score in assay [1] was -1.68. In assay [2], the “total neurite length per nucleus (z-score)” value was 0.719. Besides, in assay [3], the nucleus roundness z-score is 1.76. In assay [4], the “KCl-induced FOS+/EGR-1+ double-positive nuclei fraction z-score” value is -1.12.
For `CN(C)CCC=C1c2ccccc2CCc2ccccc21` [Amitriptyline HCl] the same measures were 0.847, -1.28, -2.24 and -1.48.
